The other results are listed elsewhere or left out.
How the values were obtained:
Test in all cases: log2 fold change, soluble protein after heating vs DMSO (PISA); higher = thermal stabilisation; K562 lysate, 10 uM; active = over 0.2 and 3.5 SD of the protein, either way, in both replicates (recomputed)
erlotinib = compound: C#Cc1cccc(Nc2ncnc3cc(OCCOC)c(OCCOC)cc23)c1 [erlotinib]
Method in brief: (§1)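 K562 pellets were dounce-homogenised in PBS pH 7.4 with 1 mM MgCl2, and the crude extract at 1 mg/mL protein was treated with 10 μM compound for 30 min. Aliquots were heated for 3 min across 48°C-58°C, pooled, and brought to 0.5% NP-40 at 4°C; soluble protein was the supernatant after 21,000xg for 90 min. Soluble protein was quantified by TMTpro 16plex LC-MS/MS with channel sums equalised, and reported as log2 fold change in thermal stability against DMSO controls, with values from duplicates.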

Sequences of proteins named here, by UniProt entry; tags and fusion partners are left off. A change or cut given only in a name is not applied to a line headed by its entry.
UniProt Q96TA1: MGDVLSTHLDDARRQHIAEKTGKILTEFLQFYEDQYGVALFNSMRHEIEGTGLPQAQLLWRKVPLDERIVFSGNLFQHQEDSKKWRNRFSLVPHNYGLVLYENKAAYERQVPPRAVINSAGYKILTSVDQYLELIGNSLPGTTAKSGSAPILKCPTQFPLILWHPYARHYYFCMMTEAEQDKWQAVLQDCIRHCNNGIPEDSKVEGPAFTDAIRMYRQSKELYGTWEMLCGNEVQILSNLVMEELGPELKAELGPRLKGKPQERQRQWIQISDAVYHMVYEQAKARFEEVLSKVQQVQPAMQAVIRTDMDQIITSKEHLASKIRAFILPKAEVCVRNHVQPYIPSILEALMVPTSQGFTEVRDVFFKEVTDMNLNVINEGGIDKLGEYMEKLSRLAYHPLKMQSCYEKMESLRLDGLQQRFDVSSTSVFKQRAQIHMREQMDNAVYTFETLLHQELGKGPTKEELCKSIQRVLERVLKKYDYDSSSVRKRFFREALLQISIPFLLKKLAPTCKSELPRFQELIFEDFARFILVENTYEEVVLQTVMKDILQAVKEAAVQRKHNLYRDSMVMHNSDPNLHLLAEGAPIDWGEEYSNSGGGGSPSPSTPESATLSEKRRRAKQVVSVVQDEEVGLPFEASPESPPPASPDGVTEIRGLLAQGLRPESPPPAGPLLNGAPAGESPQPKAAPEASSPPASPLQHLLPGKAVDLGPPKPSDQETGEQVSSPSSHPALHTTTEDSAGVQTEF
UniProt P08651, whole entry, looked up: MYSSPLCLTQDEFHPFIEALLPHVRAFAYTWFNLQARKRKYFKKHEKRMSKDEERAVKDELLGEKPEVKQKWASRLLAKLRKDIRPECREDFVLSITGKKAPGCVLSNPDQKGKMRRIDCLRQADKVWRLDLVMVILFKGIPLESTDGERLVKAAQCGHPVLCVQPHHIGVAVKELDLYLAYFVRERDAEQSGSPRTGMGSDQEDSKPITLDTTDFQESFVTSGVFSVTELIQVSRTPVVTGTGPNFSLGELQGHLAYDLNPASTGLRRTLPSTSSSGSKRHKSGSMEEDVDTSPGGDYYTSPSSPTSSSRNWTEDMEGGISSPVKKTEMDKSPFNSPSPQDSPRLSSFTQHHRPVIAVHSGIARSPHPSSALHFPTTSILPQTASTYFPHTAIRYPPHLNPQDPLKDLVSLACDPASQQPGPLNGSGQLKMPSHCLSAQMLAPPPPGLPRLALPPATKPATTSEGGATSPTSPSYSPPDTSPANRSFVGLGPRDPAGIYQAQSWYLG
UniProt Q9UN36: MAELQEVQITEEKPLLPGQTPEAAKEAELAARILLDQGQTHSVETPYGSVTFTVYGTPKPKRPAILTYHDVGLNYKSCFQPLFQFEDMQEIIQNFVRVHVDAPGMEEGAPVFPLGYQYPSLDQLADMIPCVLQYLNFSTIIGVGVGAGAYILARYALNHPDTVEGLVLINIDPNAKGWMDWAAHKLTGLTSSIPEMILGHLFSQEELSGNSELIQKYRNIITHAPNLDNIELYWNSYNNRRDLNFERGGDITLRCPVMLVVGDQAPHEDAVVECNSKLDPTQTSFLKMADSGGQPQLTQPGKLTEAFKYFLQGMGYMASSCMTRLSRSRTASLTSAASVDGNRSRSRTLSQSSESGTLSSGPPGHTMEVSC
UniProt O00217, whole entry, looked up: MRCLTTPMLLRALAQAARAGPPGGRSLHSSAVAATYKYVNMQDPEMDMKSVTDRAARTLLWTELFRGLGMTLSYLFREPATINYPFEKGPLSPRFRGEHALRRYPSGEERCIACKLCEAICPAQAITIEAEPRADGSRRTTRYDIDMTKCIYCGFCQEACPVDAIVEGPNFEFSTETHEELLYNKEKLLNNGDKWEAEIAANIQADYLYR
UniProt Q8NC96: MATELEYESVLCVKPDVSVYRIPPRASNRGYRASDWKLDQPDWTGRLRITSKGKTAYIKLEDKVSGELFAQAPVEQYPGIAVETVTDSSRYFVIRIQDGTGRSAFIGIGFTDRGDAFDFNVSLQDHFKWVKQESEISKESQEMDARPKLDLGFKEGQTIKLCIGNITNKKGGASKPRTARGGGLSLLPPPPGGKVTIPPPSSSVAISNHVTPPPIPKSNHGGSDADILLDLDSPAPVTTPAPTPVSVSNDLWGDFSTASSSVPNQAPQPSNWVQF
UniProt P52848: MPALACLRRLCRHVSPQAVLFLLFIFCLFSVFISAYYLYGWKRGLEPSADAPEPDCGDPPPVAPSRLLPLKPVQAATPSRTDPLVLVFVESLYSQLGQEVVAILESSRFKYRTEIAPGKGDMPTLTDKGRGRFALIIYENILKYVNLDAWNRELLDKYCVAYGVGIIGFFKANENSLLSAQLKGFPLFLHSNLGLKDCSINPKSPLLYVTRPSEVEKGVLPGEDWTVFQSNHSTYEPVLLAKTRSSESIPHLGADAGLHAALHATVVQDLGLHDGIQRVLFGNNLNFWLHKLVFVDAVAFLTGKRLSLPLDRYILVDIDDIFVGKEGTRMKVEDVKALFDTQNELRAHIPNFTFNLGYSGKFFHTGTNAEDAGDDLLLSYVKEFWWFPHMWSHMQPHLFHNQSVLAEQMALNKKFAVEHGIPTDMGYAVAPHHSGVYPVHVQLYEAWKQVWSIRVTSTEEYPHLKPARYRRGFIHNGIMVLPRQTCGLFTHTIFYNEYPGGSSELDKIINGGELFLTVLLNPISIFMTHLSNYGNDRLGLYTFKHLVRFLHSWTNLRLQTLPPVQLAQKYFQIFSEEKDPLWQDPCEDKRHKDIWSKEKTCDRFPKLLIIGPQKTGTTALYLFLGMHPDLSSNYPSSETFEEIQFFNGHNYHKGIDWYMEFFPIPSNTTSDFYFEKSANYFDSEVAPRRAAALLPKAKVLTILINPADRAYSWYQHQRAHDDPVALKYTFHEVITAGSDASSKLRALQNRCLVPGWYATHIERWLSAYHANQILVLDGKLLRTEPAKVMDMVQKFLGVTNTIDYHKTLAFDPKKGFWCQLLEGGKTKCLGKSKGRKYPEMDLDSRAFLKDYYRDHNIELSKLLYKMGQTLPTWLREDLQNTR
UniProt O00483, whole entry, looked up: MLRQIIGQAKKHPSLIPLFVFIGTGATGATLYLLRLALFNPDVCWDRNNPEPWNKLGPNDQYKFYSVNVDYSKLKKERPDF
UniProt Q9NPE2: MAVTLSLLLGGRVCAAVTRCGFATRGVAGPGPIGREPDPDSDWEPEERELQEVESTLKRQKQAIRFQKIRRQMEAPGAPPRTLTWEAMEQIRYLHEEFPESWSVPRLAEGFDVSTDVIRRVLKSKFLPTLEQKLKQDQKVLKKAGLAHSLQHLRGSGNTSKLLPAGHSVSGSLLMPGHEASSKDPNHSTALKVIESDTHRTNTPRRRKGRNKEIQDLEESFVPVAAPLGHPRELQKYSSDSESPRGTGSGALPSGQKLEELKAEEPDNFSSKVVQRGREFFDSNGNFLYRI
UniProt Q9H9Q4: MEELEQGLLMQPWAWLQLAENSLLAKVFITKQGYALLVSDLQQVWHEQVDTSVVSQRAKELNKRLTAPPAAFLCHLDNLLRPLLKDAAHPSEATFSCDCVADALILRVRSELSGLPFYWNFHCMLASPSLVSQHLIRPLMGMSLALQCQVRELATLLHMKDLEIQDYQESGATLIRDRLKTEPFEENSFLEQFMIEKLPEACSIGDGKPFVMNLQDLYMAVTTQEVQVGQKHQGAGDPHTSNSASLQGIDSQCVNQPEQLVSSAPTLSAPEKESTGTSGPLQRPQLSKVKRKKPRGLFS
UniProt P18615, whole entry, looked up: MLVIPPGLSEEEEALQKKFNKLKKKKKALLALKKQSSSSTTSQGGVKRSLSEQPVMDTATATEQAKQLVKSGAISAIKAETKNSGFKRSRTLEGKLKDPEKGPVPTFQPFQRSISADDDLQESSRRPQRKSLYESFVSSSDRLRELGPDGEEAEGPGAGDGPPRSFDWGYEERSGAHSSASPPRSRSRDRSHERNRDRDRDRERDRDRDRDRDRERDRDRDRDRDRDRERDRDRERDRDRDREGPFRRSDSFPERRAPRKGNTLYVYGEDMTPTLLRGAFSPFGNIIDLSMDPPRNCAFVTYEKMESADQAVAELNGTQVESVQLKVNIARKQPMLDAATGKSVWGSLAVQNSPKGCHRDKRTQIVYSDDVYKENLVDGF
UniProt P49821, whole entry, looked up: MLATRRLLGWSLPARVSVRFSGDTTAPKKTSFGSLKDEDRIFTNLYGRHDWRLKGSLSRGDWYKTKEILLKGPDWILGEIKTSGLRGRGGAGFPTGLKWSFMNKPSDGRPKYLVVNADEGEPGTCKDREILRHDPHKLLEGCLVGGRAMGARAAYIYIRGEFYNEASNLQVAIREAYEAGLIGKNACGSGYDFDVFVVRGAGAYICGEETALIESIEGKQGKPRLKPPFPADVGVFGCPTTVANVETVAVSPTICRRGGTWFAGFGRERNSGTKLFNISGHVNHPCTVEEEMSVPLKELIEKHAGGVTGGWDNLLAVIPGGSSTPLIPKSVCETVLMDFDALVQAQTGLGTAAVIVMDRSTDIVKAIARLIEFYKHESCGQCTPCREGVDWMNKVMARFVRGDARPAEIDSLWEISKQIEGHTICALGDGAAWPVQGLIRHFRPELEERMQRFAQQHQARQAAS
UniProt Q9GZM8: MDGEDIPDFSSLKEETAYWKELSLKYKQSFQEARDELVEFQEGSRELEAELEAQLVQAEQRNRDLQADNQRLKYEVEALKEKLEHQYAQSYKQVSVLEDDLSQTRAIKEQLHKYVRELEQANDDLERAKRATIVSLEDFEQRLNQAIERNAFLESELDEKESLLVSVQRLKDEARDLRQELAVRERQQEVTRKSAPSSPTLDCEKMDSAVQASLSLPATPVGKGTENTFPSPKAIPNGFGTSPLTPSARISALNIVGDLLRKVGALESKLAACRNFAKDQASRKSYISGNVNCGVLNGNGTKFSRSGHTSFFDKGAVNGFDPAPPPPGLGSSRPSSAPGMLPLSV
UniProt Q9NQR4: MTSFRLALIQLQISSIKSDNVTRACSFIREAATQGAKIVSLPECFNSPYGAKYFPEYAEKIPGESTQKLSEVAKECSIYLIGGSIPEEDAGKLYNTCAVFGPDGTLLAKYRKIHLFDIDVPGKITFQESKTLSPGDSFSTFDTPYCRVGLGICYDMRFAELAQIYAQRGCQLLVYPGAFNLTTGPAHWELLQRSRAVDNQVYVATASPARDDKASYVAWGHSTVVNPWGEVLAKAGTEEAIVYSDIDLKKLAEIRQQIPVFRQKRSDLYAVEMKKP
UniProt P25208: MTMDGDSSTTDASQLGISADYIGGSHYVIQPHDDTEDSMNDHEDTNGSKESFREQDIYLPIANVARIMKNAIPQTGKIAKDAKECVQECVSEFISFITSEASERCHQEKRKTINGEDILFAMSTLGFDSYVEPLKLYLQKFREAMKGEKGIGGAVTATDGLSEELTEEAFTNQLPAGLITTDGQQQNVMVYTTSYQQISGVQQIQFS
UniProt Q9H3P2, whole entry, looked up: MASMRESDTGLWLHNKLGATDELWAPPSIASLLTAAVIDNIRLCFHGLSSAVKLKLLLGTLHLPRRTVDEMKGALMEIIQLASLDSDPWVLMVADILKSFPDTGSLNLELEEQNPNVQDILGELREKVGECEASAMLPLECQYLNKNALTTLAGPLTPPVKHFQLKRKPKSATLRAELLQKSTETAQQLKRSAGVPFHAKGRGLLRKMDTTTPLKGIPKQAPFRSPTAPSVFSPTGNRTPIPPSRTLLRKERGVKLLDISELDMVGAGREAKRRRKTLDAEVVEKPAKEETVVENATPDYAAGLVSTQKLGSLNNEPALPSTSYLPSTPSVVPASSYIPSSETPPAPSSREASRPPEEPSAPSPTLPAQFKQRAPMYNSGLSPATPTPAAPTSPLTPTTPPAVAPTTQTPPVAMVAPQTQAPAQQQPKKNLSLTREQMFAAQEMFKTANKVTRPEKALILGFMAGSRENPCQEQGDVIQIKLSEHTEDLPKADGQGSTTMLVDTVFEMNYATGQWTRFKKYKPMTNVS
UniProt Q16621: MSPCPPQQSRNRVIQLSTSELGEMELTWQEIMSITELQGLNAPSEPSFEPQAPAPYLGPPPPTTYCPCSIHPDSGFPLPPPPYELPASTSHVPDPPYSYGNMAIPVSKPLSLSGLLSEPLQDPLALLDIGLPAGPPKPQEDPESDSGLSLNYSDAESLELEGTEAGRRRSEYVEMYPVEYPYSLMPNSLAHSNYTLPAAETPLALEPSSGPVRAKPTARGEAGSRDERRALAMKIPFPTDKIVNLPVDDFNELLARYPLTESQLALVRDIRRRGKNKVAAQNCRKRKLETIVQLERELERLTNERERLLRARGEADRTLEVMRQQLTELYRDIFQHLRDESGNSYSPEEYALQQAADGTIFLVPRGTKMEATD

[1] = compound: C/C(=N\NC(=O)C1=CC(=CC=C1)S(=O)(=O)N2CCOCC2)/C3=C(C=CC(=C3)Cl)O
Method in brief: as §1

[2] = compound: C1=CC(=CC=C1C2=NC3=C(N2)C=C(C=C3)C(=O)N)OC4=CC=C(C=C4)Cl
Method in brief: as §1

[3] = compound: C1=CC2=C(C=CC(=C2)/C=C\3/C(=O)NC(=NCC4=CC=CS4)S3)N=C1
Method in brief: as §1

[4] = compound: C1=CC2=NC=CN=C2C=C1/C=C/3\C(=O)NC(=O)S3
Method in brief: as §1

[5] = compound: C1=CC=C(C=C1)C2=NC(=C(N2)C3=CC=NC=C3)C4=CC(=C(C=C4)Cl)O
Method in brief: as §1

[6] = compound: C1=CC=C2C(=C1)C3=NNC4=CC=CC(=C43)C2=O
Method in brief: as §1

[7] = compound: C1CCN(C1)C(=O)NC2=CC=CC(=C2)NC3=NC=C(C(=N3)NCCC4=CN=CN4)Br
Method in brief: as §1

[8] = compound: C1CN(CCC1(CC2=CC=C(C=C2)Cl)N)C3=NC=NC4=C3C=CN4
Method in brief: as §1

IRAK-1-4 Inhibitor I = compound: C1COCCN1CCN2C3=CC=CC=C3N=C2NC(=O)C4=CC(=CC=C4)[N+](=O)[O-] [IRAK-1-4 Inhibitor I]
Method in brief: as §1

ibrutinib = compound: C=CC(=O)N1CCC[C@@H](n2nc(-c3ccc(Oc4ccccc4)cc3)c3c(N)ncnc32)C1 [ibrutinib]
Method in brief: as §1

[9] = compound: CC(=O)c1cnc2ccc(-c3cc(Cl)c(O)c(Cl)c3)nc2c1N[C@H]1CC[C@H](CN(C)C)CC1
Method in brief: as §1

ralimetinib = compound: CC(C)(C)Cn1c(N)nc2ccc(-c3[nH]c(C(C)(C)C)nc3-c3ccc(F)cc3)nc21 [ralimetinib]
Method in brief: as §1

[10] = compound: CC(C)(O)CC(=O)NCCn1ccc2ncnc(Nc3ccc(Oc4cccc(C(F)(F)F)c4)c(Cl)c3)c21
Method in brief: as §1

[11] = compound: CC(C)C1=C2N=C(C=C(N2N=C1)NCC3=CC=CC=C3)NCCCCCCN
Method in brief: as §1

[12] = compound: CC1=C(C(CC(=O)N1)C2=CC=C(C=C2)C(F)(F)F)C(=O)NC3=C(C=C4C(=C3)C=NN4)F
Method in brief: as §1

[13] = compound: CC1=C(C2=C(C=C1)C(=O)C3=CC=CC=C3N2CCCN)C
Method in brief: as §1

[14] = compound: CC1=C(C=C(C=C1)NC(=O)C2=CC(=CC=C2)C(C)(C)C#N)NC3=CC4=C(C=C3)N=CN(C4=O)C
Method in brief: as §1

[15] = compound: CC1=C(C=C(C=C1)NC(=O)C2=CC(=CC=C2)N(C)C)NC(=O)C3=CC=C(C=C3)O
Method in brief: as §1

[16] = compound: CC1=CC=C(C=C1)SC2=C3C=C(SC3=CN=C2)C(=O)N
Method in brief: as §1

Measured: log2 fold change

NIBAN2 (UniProt Q96TA1)
inactive: erlotinib -0.016 | [1] 0.002 | [2] 0.051 | [3] 0.01 | [4] -0.007 | [5] 0 | [6] 0 | [7] 0.013 | [8] 0.011 | IRAK-1-4 Inhibitor I -0.013 | ibrutinib -0.024 | [9] 0.002 | ralimetinib -0.01 | [10] 0.004 | [11] -0.022 | [12] 0.011 | [13] 0.011 | [14] 0.01 | [15] 0.01 | [16] 0

NFIC (UniProt P08651)
inactive: erlotinib 0.014 | [1] 0.063 | [2] -0.044 | [3] 0.025 | [4] 0.001 | [5] -0.084 | [6] -0.082 | [7] -0.016 | [8] -0.032 | IRAK-1-4 Inhibitor I 0.052 | ibrutinib -0.019 | [9] 0.014 | ralimetinib 0.009 | [10] -0.058 | [11] 0.235 | [12] -0.038 | [13] -0.044 | [14] 0.049 | [15] 0.04 | [16] -0.082

NDRG2 (UniProt Q9UN36)
inactive: erlotinib -0.002 | [1] -0.157 | [2] 0.023 | [3] 0.002 | [4] -0.022 | [5] 0.023 | [6] -0.037 | [7] 0.019 | [8] 0.044 | IRAK-1-4 Inhibitor I 0.024 | ibrutinib -0.002 | [9] 0 | ralimetinib -0.026 | [10] -0.012 | [11] -0.004 | [12] 0.008 | [13] -0.027 | [14] -0.016 | [15] 0.012 | [16] 0

NDUFS8 (UniProt O00217)
inactive: erlotinib -0.005 | [1] 0.073 | [2] -0.05 | [3] 0.031 | [4] 0.159 | [5] -0.058 | [6] 0.061 | [7] 0.033 | [8] 0.09 | IRAK-1-4 Inhibitor I 0.034 | ibrutinib 0.055 | [9] 0.013 | ralimetinib -0.002 | [10] -0.068 | [11] -0.031 | [12] 0.008 | [13] 0.048 | [14] 0.025 | [15] 0.005 | [16] -0.021

NECAP1 (UniProt Q8NC96)
inactive: erlotinib -0.043 | [1] -0.008 | [2] 0.031 | [3] 0.005 | [4] -0.029 | [5] 0.014 | [6] 0.002 | [7] -0.019 | [8] 0.011 | IRAK-1-4 Inhibitor I 0.052 | ibrutinib 0.021 | [9] 0.017 | ralimetinib 0.015 | [10] -0.037 | [11] -0.023 | [12] 0.042 | [13] -0.004 | [14] 0.056 | [15] -0.008 | [16] 0.012

NDST1 (UniProt P52848)
inactive: erlotinib -0.016 | [1] 0.106 | [2] 0.029 | [3] 0 | [4] -0.049 | [5] -0.029 | [6] -0.125 | [7] 0.085 | [8] 0.055 | IRAK-1-4 Inhibitor I 0.028 | ibrutinib 0.131 | [9] -0.128 | ralimetinib 0.004 | [10] 0.009 | [11] -0.001 | [12] 0.001 | [13] 0.005 | [14] 0.025 | [15] -0.01 | [16] 0.038

NDUFA4 (UniProt O00483)
inactive: erlotinib 0.038 | [1] 0.092 | [2] -0.012 | [3] 0.055 | [4] 0.009 | [5] 0.055 | [6] 0.046 | [7] 0.012 | [8] 0.001 | IRAK-1-4 Inhibitor I -0.01 | ibrutinib 0.007 | [9] 0.199 | ralimetinib 0.022 | [10] 0.03 | [11] -0.068 | [12] -0.045 | [13] -0.036 | [14] -0.058 | [15] 0.009 | [16] -0.199

NGRN (UniProt Q9NPE2)
inactive: erlotinib -0.041 | [1] -0.003 | [2] 0.023 | [3] 0.033 | [4] -0.002 | [5] 0.008 | [6] -0.046 | [7] 0.06 | [8] -0.007 | IRAK-1-4 Inhibitor I -0.005 | ibrutinib 0.001 | [9] 0.013 | ralimetinib 0.022 | [10] 0.002 | [11] 0.059 | [12] 0.046 | [13] 0.022 | [14] -0.007 | [15] -0.001 | [16] -0.069

NHEJ1 (UniProt Q9H9Q4)
inactive: erlotinib -0.025 | [1] -0.063 | [2] 0.077 | [3] -0.073 | [4] -0.06 | [5] -0.025 | [6] 0.042 | [7] 0.011 | [8] 0.039 | IRAK-1-4 Inhibitor I 0 | ibrutinib 0.053 | [9] 0.041 | ralimetinib 0.029 | [10] -0.061 | [11] -0.037 | [12] -0.035 | [13] -0.015 | [14] 0.026 | [15] 0.006 | [16] -0.038

Retrieved one by one from the entries so far, 2 records:
NDUFA4 (UniProt O00483)
inactive: erlotinib 0.038 | [1] 0.092 | [2] -0.012 | [3] 0.055 | [4] 0.009 | [5] 0.055 | [6] 0.046 | [7] 0.012 | [8] 0.001 | IRAK-1-4 Inhibitor I -0.01 | ibrutinib 0.007 | [9] 0.199 | ralimetinib 0.022 | [10] 0.03 | [11] -0.068 | [12] -0.045 | [13] -0.036 | [14] -0.058 | [15] 0.009 | [16] -0.199

NGRN (UniProt Q9NPE2)
inactive: erlotinib -0.041 | [1] -0.003 | [2] 0.023 | [3] 0.033 | [4] -0.002 | [5] 0.008 | [6] -0.046 | [7] 0.06 | [8] -0.007 | IRAK-1-4 Inhibitor I -0.005 | ibrutinib 0.001 | [9] 0.013 | ralimetinib 0.022 | [10] 0.002 | [11] 0.059 | [12] 0.046 | [13] 0.022 | [14] -0.007 | [15] -0.001 | [16] -0.069

Remaining list, next part.

NELFE (UniProt P18615)
inactive: erlotinib -0.009 | [1] -0.043 | [2] -0.002 | [3] -0.013 | [4] -0.01 | [5] 0.037 | [6] -0.021 | [7] -0.003 | [8] 0.008 | IRAK-1-4 Inhibitor I 0.012 | ibrutinib -0.013 | [9] -0.018 | ralimetinib 0.013 | [10] -0.026 | [11] 0 | [12] -0.009 | [13] -0.012 | [14] 0.037 | [15] -0.014 | [16] -0.004

NDUFV1 (UniProt P49821)
inactive: erlotinib 0 | [1] -0.017 | [2] -0.009 | [3] -0.026 | [4] -0.024 | [5] -0.01 | [6] -0.021 | [7] -0.027 | [8] 0.023 | IRAK-1-4 Inhibitor I 0.019 | ibrutinib 0.019 | [9] -0.024 | ralimetinib 0.003 | [10] -0.011 | [11] -0.014 | [12] 0.027 | [13] 0.01 | [14] 0.027 | [15] -0.004 | [16] 0.005

NDEL1 isoform 2 (UniProt Q9GZM8)
inactive: erlotinib -0.058 | [1] 0 | [2] 0.024 | [3] 0.031 | [4] -0.086 | [5] -0.033 | [6] 0.024 | [7] -0.019 | [8] -0.006 | IRAK-1-4 Inhibitor I 0.001 | ibrutinib 0.005 | [9] -0.001 | ralimetinib -0.011 | [10] -0.042 | [11] -0.022 | [12] -0.013 | [13] -0.036 | [14] 0.043 | [15] 0.026 | [16] 0.016

NIT2 (UniProt Q9NQR4)
inactive: erlotinib -0.048 | [1] 0.001 | [2] 0.014 | [3] 0.009 | [4] 0.007 | [5] -0.03 | [6] 0.032 | [7] -0.006 | [8] 0.015 | IRAK-1-4 Inhibitor I 0.067 | ibrutinib 0.026 | [9] 0.014 | ralimetinib -0.038 | [10] -0.041 | [11] 0.014 | [12] 0.017 | [13] 0.014 | [14] 0.017 | [15] 0.019 | [16] 0

NFYB (UniProt P25208)
inactive: erlotinib -0.019 | [1] -0.345 | [2] 0.063 | [3] 0.053 | [4] 0 | [5] -0.031 | [6] -0.003 | [7] -0.004 | [8] -0.032 | IRAK-1-4 Inhibitor I -0.069 | ibrutinib -0.12 | [9] -0.009 | ralimetinib -0.084 | [10] -0.105 | [11] -0.02 | [12] 0.018 | [13] -0.024 | [14] -0.004 | [15] 0.027 | [16] -0.037

NELFA (UniProt Q9H3P2)
inactive: erlotinib -0.04 | [1] -0.018 | [2] 0.002 | [3] 0.047 | [4] 0.007 | [5] 0.007 | [6] -0.009 | [7] 0.011 | [8] -0.001 | IRAK-1-4 Inhibitor I -0.017 | ibrutinib 0 | [9] 0.001 | ralimetinib -0.038 | [10] 0.003 | [11] -0.012 | [12] 0.008 | [13] 0.008 | [14] -0.022 | [15] -0.04 | [16] -0.024

NFE2 (UniProt Q16621)
inactive: erlotinib -0.01 | [1] 0.059 | [2] -0.034 | [3] -0.014 | [4] 0.06 | [5] 0.022 | [6] -0.044 | [7] 0.017 | [8] -0.002 | IRAK-1-4 Inhibitor I 0.025 | ibrutinib -0.031 | [9] -0.051 | ralimetinib 0.04 | [10] -0.013 | [11] 0.018 | [12] 0.036 | [13] 0.071 | [14] 0.094 | [15] 0.011 | [16] 0.003

Reference: the supplement of paper PMC10849652
